Test [1] addresses T1, V5-tagged full-length human Slitrk1 (aa 1-696), expressed in HEK293T cells (human) (UniProt Q96PX8).
T1 sequence: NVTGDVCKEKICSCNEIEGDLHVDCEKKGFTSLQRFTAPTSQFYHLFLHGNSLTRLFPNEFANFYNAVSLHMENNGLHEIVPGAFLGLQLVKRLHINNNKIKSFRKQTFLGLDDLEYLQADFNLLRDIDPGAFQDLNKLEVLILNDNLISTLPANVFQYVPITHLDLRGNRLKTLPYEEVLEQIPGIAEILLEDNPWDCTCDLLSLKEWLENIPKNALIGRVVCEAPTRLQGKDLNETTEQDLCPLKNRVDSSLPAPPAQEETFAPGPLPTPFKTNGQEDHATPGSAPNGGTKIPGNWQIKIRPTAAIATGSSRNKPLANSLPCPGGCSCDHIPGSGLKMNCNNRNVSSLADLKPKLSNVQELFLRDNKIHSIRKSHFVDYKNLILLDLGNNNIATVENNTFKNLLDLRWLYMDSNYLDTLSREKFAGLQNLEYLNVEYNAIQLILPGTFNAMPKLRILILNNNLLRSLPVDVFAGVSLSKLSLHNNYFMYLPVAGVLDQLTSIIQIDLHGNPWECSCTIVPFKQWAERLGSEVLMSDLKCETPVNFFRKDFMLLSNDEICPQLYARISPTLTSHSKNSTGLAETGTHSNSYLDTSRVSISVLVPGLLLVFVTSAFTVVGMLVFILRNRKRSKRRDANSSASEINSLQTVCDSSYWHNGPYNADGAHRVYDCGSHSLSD
Briefly: co-IP; HEK293T cells co-transfected with Slitrk1-myc and Slitrk1-V5 or V5-tagged variants; 750 ug lysate, IP with anti-V5 and Protein A/G Plus agarose at 4 °C, blot with myc and V5 antibodies.

In test [2] the target is T2, V5-tagged Slitrk1ΔLRR1 (Δ aa 18-264), expressed in HEK293T cells (human) (UniProt Q96PX8).
T2 sequence: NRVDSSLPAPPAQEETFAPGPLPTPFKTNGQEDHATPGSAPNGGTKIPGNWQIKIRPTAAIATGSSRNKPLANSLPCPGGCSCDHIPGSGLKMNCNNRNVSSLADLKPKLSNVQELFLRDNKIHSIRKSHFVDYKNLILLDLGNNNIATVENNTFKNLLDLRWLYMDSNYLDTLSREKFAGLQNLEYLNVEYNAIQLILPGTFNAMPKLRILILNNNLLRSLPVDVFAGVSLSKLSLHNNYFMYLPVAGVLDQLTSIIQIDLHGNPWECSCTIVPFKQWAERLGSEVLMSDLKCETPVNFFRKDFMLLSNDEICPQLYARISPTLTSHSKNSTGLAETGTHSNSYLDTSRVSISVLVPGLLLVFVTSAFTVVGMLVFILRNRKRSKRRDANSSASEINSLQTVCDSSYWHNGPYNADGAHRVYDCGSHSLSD
The description is as above.

Results are given in words; binding and its absence hold for the method and conditions named. In cells and extracts the contact can be indirect. Some binding calls cover weakened binding; strength is not graded here. Where a sequence is shown, tags or fusion partners need not be part of it.

B1: Myc-tagged full-length human Slitrk1 (aa 1-696), expressed in HEK293T cells (protein, UniProt Q96PX8 18-696)
chain: NVTGDVCKEKICSCNEIEGDLHVDCEKKGFTSLQRFTAPTSQFYHLFLHGNSLTRLFPNEFANFYNAVSLHMENNGLHEIVPGAFLGLQLVKRLHINNNKIKSFRKQTFLGLDDLEYLQADFNLLRDIDPGAFQDLNKLEVLILNDNLISTLPANVFQYVPITHLDLRGNRLKTLPYEEVLEQIPGIAEILLEDNPWDCTCDLLSLKEWLENIPKNALIGRVVCEAPTRLQGKDLNETTEQDLCPLKNRVDSSLPAPPAQEETFAPGPLPTPFKTNGQEDHATPGSAPNGGTKIPGNWQIKIRPTAAIATGSSRNKPLANSLPCPGGCSCDHIPGSGLKMNCNNRNVSSLADLKPKLSNVQELFLRDNKIHSIRKSHFVDYKNLILLDLGNNNIATVENNTFKNLLDLRWLYMDSNYLDTLSREKFAGLQNLEYLNVEYNAIQLILPGTFNAMPKLRILILNNNLLRSLPVDVFAGVSLSKLSLHNNYFMYLPVAGVLDQLTSIIQIDLHGNPWECSCTIVPFKQWAERLGSEVLMSDLKCETPVNFFRKDFMLLSNDEICPQLYARISPTLTSHSKNSTGLAETGTHSNSYLDTSRVSISVLVPGLLLVFVTSAFTVVGMLVFILRNRKRSKRRDANSSASEINSLQTVCDSSYWHNGPYNADGAHRVYDCGSHSLSD
As to B1, the binding result in test [1] and in test [2] was “binds” in each case.

The record behind these values is PMC4895136.
